Experimental data taken from PubChem BioAssay AID504834 (National Center for Advancing Translational Sciences (NCATS), 2011).
In all, about 320,000 compounds went through this assay and about 22,000 (6.9%) were called active. Inconclusive means that the source gave no clear call. Such entries were picked first, then a sample of the others. Calls come from the whole dose curve; as a rule, active = well fitted inhibition curve with a large enough effect; inconclusive = small, poorly fitted or top-dose-only effect, or another doubt; inactive = no such curve, though single readings can be large or run the other way. Potencies of inconclusive entries are doubtful fits and often do not repeat.

Assay: Primary qHTS for delayed death inhibitors of the malarial parasite plastid, 96 hour incubation
Details: P. falciparum luciferase reporter growth; series mostly up to 28.7 µM; activity change, negative = inhibition: at the top concentration
Outline: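 Cell-based qHTS: luciferase-tagged P. falciparum in erythrocytes (2% hematocrit, 0.05% parasitemia final) incubated with compounds for 96 hours, 37 C, 5% CO2; luciferase detection reagent then added and luminescence measured.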
% is set by controls: 0 for no effect and ±100 for the full control effect; potency is the fitted concentration of half-maximal effect.

SMILES | activity change, negative = inhibition | Potency
CCCCSc1nnc([C@H](CC(C)C)NC(=O)OC(C)(C)C)o1 | inactive: 8.69% | 
Cc1ccc(-c2nn(CCC(=O)Nc3cccnc3)c(=O)c3ccccc23)cc1 |  | inconclusive: 4.15 µM [inhibitor, full curve, poor fit]
O=C(Nc1cccc2cccnc12)c1ccc(Cl)cc1 | inactive: 33.7% | 
O=C(OCCc1cc2ccccc2c(=O)o1)c1ccco1 | inactive: -6.93% | 
COc1ccc(C(=O)NCc2nnc(SCC(=O)Nc3ccc4c(c3)OCO4)o2)cc1 | inactive: 97.7% | 
O=C(NNC(=O)c1ccc(SCC2CCCO2)c([N+](=O)[O-])c1)c1ccc(Cl)c([N+](=O)[O-])c1 (centres undefined) |  | inconclusive: 9.28 µM [inhibitor, single point]
c1ccc(-n2ncc3c(NC4CCCCCC4)ncnc32)cc1 | inactive: 66.8% | 
O=C(NCC(c1ccco1)N1CCCC1)c1cc(S(=O)(=O)N2CCOCC2)ccc1Cl (centres undefined) |  | inconclusive: 18.5 µM [inhibitor, single point]
COc1cc(NC(=O)[C@@H](NC(=O)N2CCn3c2nc2ccccc23)C(C)C)cc(OC)c1 |  | inconclusive: 18.5 µM [inhibitor, single point]
O=C(Cc1cccs1)N1CCN(S(=O)(=O)c2cc(Cl)ccc2Cl)CC1 | inactive: 4.56% | 
Cc1ccc2nc(N3CCN(c4cccc(C)c4C)CC3)c3nnnn3c2c1 |  | inconclusive: 2.33 µM [inhibitor, full curve, poor fit]
COc1ccc(CN2CCC(=O)N([C@H](CO)Cc3ccccc3)CC2)cc1OC | inactive: 2.39% | 
CCOC(=O)c1ccc(NC(=S)N2CCN(CCN=CC3=C(O)CC(c4ccccc4)CC3=O)CC2)cc1 (centres undefined) |  | inconclusive: 4.65 µM [inhibitor, partial curve]
COc1ccccc1NC(=O)c1ccc(NS(=O)(=O)c2ccc(F)c(F)c2F)cc1 | inactive: -6.68% | 
CCN(CC)C(=O)CSc1nc2ccccc2c(=O)n1CC1CCCCC1 |  | inconclusive: 7.38 µM [inhibitor, partial curve, poor fit]
O=C(CC1SC(N2CCCCC2)=NC1=O)Nc1cccc(C(=O)Nc2ncccc2O)c1 (centres undefined) |  | inconclusive: 9.28 µM [inhibitor, single point]
CSCCCNC(=O)c1ccc(OC2CCN(CCc3ccccc3)CC2)cc1 |  | active: 13.1 µM

Two records picked at random from those above, as already listed:
SMILES | activity change, negative = inhibition | Potency
COc1ccc(C(=O)NCc2nnc(SCC(=O)Nc3ccc4c(c3)OCO4)o2)cc1 | inactive: 97.7% | 
c1ccc(-n2ncc3c(NC4CCCCCC4)ncnc32)cc1 | inactive: 66.8% | 

(next part)

SMILES | activity change, negative = inhibition | Potency
CC1(C)Cc2ccccc2C(=O)N1 | inactive: -3.27% | 
O=C(Nc1cccc(C(F)(F)F)c1)c1ccc(Cn2cc(Br)cn2)o1 | inactive: 14.2% | 
COc1ccc(-n2nnc3c(SCC(=O)Nc4ccccc4F)ncnc32)cc1 | inactive: 37.8% | 
CC1CCCN(C(=O)COC(=O)CNC(=O)c2sc3ccccc3c2Cl)C1 (centres undefined) |  | inconclusive: 10.4 µM [inhibitor, single point]
CCN(CC)c1ccc(C(NC(C)=O)NC(C)=O)cc1 | inactive: 9% | 
COCCn1c(C)cc(C(=O)COC(=O)CCN2C(=O)c3ccccc3C2=O)c1C | inactive: 36.6% | 
Cc1cc2[nH]ncc2cc1NC(N)=S |  | inconclusive: 0.0093 µM [inhibitor, full curve, poor fit]
CCOc1ccccc1NCc1cc(=O)oc2cc(C)c(O)cc12 |  | inconclusive: 14.7 µM [inhibitor, partial curve, poor fit]
CC(=O)Nc1ccc(S(=O)(=O)N2CCN(S(=O)(=O)c3ccccc3)CC2)cc1 |  | inconclusive: 10.4 µM [inhibitor, single point]
O=S(=O)(NC1C2CC3CC(C2)CC1C3)c1ccc(F)cc1 (centres undefined) |  | inconclusive: 18.5 µM [inhibitor, partial curve, poor fit]
CC(C)c1ccc(NC(=S)NN2CCOCC2)cc1 |  | inconclusive: 18.5 µM [inhibitor, single point]
CCCCN1CC(O)=C(c2nc(-c3ccc(Br)cc3)cs2)C1=N |  | inconclusive: 0.0928 µM [inhibitor, full curve, poor fit]
CC1(C)Cc2c(c(N3CCOCC3)nc3sc(C(=O)Nc4ccccc4)c(N)c23)CO1 |  | inconclusive: 11.7 µM [inhibitor, single point]
COc1ccc(SCCN2CC[C@@H](C(C)(C)C)CCC2=O)cc1 |  | inconclusive: 16.5 µM [inhibitor, single point]
CCc1nnc(SCC(=O)Nc2ccc3c(c2)OCO3)n1CC |  | inconclusive: 18.5 µM [inhibitor, single point]
CC1=C(C(=O)OC(C)C)C(c2ccc(O)cc2)NC(=O)N1 (centres undefined) |  | inconclusive: 18.5 µM [inhibitor, single point]
O=C(CSc1n[nH]c(=O)n1C1CC1)NCc1ccccc1 | inactive: -2.15% | 
